# Construct, isoform or probe ends are uncertain for at least one entry. Where a protein sequence is shown, tags need not be part of it.
# Biological target: T1, His-OsbR (Chromobacterium violaceum ATCC 12472) (UniProt Q7NR79)
# T1 sequence (looked up, limits assumed): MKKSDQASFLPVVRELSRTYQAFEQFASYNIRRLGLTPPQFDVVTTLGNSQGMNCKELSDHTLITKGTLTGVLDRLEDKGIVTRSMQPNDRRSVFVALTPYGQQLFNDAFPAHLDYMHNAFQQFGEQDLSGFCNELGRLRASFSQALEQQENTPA
# Experiment: EMSA
# Conditions: reduced OsbR; EMSA with 32P-labeled PCR probes and reduced His-OsbR; pH and temperature not given (refers to earlier papers); CHP pretreatment at room temperature; recombinant protein; protein details: His (pET15b); label: 32P 5' end; probe letters rebuilt from the primers and the genome
row,Sequence,binding result
1,ATCAAGCTTCATCGAAAGAGTCCCCGTGCTGTTCTTAAGCAGAGTGGTACAGAGTAAGGCCCTAATTGACAGAGTCACCTACAATTCTGACACGCGCTCTGGATAAATTCGCCTGTCTGAAATGTCATGTTCATCCAGACAAAATTTTCTAGATCGGCCTGTCCTTATCGGCAGTAAACAAGGCGGATCGATCGATGGCAGCGCGGGGAATGCCGGATTTCGGCATGACGCCAGCCTGGAATCGGTTTTTGTCAAGCGCCAGGGCATTGCCAAATGGTGCGCCGAGGCGGGCTTTCGTTATAATGAGCGAGAAATGCCCGCGAGCGGCGGGCCGGCAGCCGGAAAACGGCGGCCGGGCAGGGACAGGATAATAACGGGAAGCTGCCTGAAAAGCATCGCCGCAAGAAACGGGCGGGCATCCGGGGCGATCGGCGCGGGGCGCGGCGTCAGGGCGCTTGTTTACCGGCTCTTGATGGTTTTGGACAGGCGGCTTCGATTATTCGCCTTAATGCGGACTGGCTCTGCAGGGTACC (double strand) [osbR promoter],binds
2,GACCGACAATGACGGCTACGGCTTCTTCGCGGCGCTGGGCGATCTGCTGGTCACCGGCCCCACCCATACCAACGTCAACGATTTTCGCGCGATCCTGCTGCGGTAACGGAGTCGCGGCCAGCCGCGAGTCGGAACGCCGCCCGGCTCTCCACGATCCAGGCCATGCGATGCATGGCCTTTTTTGCGCGCGCATTCATGACATGGAGGTATGGTCAAGCCTACAGATCAGACTTTGTTCATCTTGACCCGAACTATCTTGGGCAACTATGATTCATATCAAAGTTTCAGAAATTCCTGAAAGTTGAGAATGTCATGAATATTCCACCTCTGGTGCAGGCTTTCGTGCTGCATTTCGGC (double strand) [CV_3659 promoter],binds
3,GCGACAACACCAGCAGCTTGCTGGCCAGGGTCTGGAAGCGGGGAGGGGCAAAACGGATGTCGGGCATGGGCATGGTTCTGCTTTTGGCGGATGGCAAACGGCGGCGGCGGACTGCACAATGTCTGGACGCGGTTATGGTTCAGATATGAATTGTTTAAACATAGCTTTTATCGATGGCCGCGACAATCCGTCAAAAGGAGAAGAAATGCAAGCGGTACTGGGCATATGCGGTTACTCGGGCAGCGGCAAGACCACCTTGCTGGAGGCGCTGCTGCCCTTGCTGGGGCGCCGGGGCTTGAGGGTGTCGGTGATC (double strand) [narX promoter],binds

# From PMC8567585
